No constants are given. Whether binding was seen depends on the method and setting. Binding seen in cells or lysates may run through a third protein. Some binding calls cover weakened binding; strength is not graded here.
Assays:
[1] = biological target: Beclin-1 (human (endogenous in NCI-N87 and MKN-74)) (UniProt Q14457); test: co-IP; lysates of NCI-N87 and MKN-74 cells in IP buffer (pH 7.5, 50 mM Tris-HCl, 250 mM NaCl, 5 mM EDTA, 0.5% NP-40); anti-Bcl-2 or anti-Beclin-1 at 4 °C for 16 h, protein A/G plus agarose; Western blot; cells untreated or treated with cinnamaldehyde (CA, 50 μg/mL; 0, 16, 24 h), which suppressed the interaction
[2] = biological target: Bcl-2 (human (endogenous in NCI-N87 and MKN-74)) (UniProt P10415); test: as above

The chains behind the UniProt entries cited, without tags or fusion partners.
UniProt Q14457: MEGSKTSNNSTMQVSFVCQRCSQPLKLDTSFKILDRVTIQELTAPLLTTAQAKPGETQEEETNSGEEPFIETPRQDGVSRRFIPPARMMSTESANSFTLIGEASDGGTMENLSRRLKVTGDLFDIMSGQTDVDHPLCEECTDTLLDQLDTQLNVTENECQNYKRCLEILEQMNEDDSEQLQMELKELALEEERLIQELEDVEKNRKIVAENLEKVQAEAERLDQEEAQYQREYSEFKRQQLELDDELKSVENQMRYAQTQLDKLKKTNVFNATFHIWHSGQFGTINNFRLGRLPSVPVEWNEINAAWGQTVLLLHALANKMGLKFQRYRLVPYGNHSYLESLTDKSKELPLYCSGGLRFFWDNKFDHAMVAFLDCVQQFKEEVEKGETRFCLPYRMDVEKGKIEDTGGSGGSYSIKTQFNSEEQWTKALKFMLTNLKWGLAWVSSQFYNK
UniProt P10415: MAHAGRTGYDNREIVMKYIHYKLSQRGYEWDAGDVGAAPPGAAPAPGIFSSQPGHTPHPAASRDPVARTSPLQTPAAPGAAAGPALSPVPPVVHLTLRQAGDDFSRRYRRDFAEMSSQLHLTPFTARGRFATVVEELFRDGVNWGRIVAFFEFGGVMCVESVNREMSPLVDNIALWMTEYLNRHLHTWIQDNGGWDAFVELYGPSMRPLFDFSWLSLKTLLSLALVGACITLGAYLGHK

Row | Substance | binding [1] | binding [2]
1 | Bcl-2 (from UniProt P10415 1-239) | binds | –
2 | Beclin-1 (from UniProt Q14457 1-450) | – | binds
